Results: publication PMC11065945
These are yes or no findings as the source states them, for the method shown. Sequences can lack the tags named with a protein.

Tests used:
[1] = target: Mycobacterium tuberculosis H37Rv Rv2231c (histidinol phosphate aminotransferase, HspAT), purified recombinant protein (Mycobacterium tuberculosis H37Rv) (UniProt P9WQ89); test: dynamic light scattering; Xtal concept spectrosize-300, protein at 1.0 mg/ml, passed through a 0.2 µm PVDF filter; hydrodynamic radius; both purified
[2] = target: Mycobacterium tuberculosis H37Rv Rv2231c (histidinol phosphate aminotransferase, HspAT), purified recombinant protein (Mycobacterium tuberculosis H37Rv) (UniProt P9WQ89); test: SEC; both purified

B1: Mycobacterium tuberculosis H37Rv Rv2231c (histidinol phosphate aminotransferase, HspAT), purified recombinant protein (enzyme, UniProt P9WQ89 1-364)
chain: MLWILGPHTGPLLFDAVASLDTSPLAAARYHGDQDVAPGVLDFAVNVRHDRPPEWLVRQLAALLPELARYPSTDDVHRAQDAVAERHGRTRDEVLPLVGAAEGFALLHNLSPVRAAIVVPAFTEPAIALSAAGITAHHVVLKPPFVLDTAHVPDDADLVVVGNPTNPTSVLHLREQLLELRRPGRILVVDEAFADWVPGEPQSLADDSLPDVLVLRSLTKTWSLAGLRVGYALGSPDVLARLTVQRAHWPLGTLQLTAIAACCAPRAVAAAAADAVRLTALRAEMVAGLRSVGAEVVDGAAPFVLFNIADADGLRNYLQSKGIAVRRGDTFVGLDARYLRAAVRPEWPVLVAAIAEWAKRGGRR
binding [1]: no binding (tested: 1.0 mg/ml)
binding [2]: no binding
